These are yes or no findings as the source states them, for the method shown. Binding seen in cells or lysates may run through a third protein. For part of these data: A result given as binding can be weak or reduced; the word gives no strength. Tags and fused reporters may be left off the sequences shown. Blank lines part the entries; values can stand above or below the molecule they belong to.
How the values were obtained:
Experiment in all cases: co-IP; COS7 cells cotransfected; 1 mg lysate (50 mM Tris-HCl pH 7.4-7.5, 300 mM NaCl, 1% Triton X-100) on Anti-FlagM2 affinity gel overnight; Flag-tagged protein as bait; eluted by boiling in SDS lysis buffer, Western blot
[1] = molecular target: T1, LOXL3-flag (murine lysyl oxidase-like 3) (mouse) (UniProt Q9Z175)
T1 sequence: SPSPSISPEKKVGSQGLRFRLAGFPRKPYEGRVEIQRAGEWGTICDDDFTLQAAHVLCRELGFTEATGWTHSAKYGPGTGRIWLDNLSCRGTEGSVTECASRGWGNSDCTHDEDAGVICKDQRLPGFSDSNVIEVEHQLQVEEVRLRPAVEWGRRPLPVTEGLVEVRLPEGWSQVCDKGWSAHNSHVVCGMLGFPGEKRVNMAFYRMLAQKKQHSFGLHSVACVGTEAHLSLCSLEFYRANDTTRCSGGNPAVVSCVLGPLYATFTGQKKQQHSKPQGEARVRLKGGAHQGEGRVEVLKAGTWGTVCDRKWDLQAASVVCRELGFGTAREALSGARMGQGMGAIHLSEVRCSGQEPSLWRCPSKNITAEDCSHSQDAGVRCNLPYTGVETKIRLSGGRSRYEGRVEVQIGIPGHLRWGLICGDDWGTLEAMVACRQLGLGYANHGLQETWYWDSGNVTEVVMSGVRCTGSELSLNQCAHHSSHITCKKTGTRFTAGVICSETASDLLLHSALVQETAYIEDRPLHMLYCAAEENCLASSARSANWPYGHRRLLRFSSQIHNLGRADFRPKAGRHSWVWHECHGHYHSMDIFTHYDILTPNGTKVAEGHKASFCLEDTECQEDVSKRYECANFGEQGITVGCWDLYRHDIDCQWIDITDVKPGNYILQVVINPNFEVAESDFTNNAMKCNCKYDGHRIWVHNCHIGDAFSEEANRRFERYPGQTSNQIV

Chains of the proteins cited; added tags and fusions are not shown. Lines headed by an entry give the natural chain unless they say otherwise; changes in a name come on top.
UniProt P97873: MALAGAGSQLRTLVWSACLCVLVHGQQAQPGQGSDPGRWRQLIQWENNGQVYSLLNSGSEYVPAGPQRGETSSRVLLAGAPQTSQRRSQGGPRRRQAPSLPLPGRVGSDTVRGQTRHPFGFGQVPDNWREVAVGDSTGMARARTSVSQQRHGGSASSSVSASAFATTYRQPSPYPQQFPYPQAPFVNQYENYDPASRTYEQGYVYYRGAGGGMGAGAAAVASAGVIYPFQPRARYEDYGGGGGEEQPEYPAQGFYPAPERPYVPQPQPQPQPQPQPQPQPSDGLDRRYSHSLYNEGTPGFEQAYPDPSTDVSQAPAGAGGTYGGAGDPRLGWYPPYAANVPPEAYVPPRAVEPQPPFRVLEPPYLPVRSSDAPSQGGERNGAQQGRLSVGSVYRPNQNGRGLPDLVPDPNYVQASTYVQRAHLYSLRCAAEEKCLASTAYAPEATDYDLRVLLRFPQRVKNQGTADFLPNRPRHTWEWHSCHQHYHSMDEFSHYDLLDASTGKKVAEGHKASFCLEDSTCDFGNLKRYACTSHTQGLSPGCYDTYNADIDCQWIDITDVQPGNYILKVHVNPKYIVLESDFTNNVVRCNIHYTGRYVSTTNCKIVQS
UniProt P28301: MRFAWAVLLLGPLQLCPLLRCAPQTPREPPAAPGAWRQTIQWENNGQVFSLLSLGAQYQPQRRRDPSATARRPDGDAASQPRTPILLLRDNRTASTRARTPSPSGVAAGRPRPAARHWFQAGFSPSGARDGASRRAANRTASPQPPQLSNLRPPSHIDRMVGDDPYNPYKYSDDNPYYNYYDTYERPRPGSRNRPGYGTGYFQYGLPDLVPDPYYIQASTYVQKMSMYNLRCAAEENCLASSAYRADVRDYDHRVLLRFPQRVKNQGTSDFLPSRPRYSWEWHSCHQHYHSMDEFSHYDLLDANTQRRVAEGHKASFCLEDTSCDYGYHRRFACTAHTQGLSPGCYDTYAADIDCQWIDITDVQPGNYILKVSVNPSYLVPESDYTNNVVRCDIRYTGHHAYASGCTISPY

[2] = molecular target: T2, APMAP_E1-flag (Apmap_E1 in pFLAG-CMV-5.1) (mouse) (UniProt Q9D7N9)
T2 sequence: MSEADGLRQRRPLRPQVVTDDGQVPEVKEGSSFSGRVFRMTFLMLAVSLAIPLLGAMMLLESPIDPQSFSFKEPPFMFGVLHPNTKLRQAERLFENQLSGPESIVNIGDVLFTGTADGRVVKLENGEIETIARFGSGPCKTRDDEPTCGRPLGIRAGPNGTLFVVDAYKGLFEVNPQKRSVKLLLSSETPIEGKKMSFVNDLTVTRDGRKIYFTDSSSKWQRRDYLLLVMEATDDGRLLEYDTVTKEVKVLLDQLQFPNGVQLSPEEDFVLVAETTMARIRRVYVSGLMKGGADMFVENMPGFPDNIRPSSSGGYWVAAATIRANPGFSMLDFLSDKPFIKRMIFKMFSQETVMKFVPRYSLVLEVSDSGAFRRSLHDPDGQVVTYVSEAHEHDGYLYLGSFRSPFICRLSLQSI

[3] = molecular target: LOXL1-flag (murine lysyl oxidase-like 1) (mouse) (UniProt P97873)

binding [1]: binds
Molecule: APMAP_E2, truncated APMAP variant (start codon in exon 2) (mouse)

binding [2]: no binding
Molecule: His-LOX (lysyl oxidase in pcDNA4/HismaxC) (from UniProt P28301)

binding [3]: binds
B1: His-tagged full-length murine APMAP_E1 (adipocyte plasma membrane-associated protein) (protein, UniProt Q9D7N9 1-415)
chain: T2 sequence
